Measured values taken from the supplement of paper PMC8728848.
This is one part of the list.

Assays:
Test in all cases: glycan array binding signal (z-score within array); higher = stronger binding
Settings in all cases: glycan notation: IUPAC condensed, linker removed
[1] = biological target: Gal(b1-3)GlcNAc(b1-2)Man(a1-3)[Gal(b1-3)GlcNAc(b1-2)Man(a1-6)]Man(b1-4)GlcNAc(b1-4)[Fuc(a1-6)]GlcNAc
Summary of the method: (§1)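 The binding signal is a Z-score computed within each array and averaged over linkers. Arrays of the same protein sequence at different concentrations or buffers were also averaged together. Data originate from 3228 arrays in the Consortium for Functional Glycomics database, kept only where the protein sequence was available.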

[2] = biological target: Gal(b1-3)GlcNAc(b1-2)Man(a1-3)[GlcNAc(b1-4)][Gal(b1-3)GlcNAc(b1-2)Man(a1-6)]Man(b1-4)GlcNAc(b1-4)GlcNAc
Summary of the method: as §1

[3] = biological target: Gal(b1-3)GlcNAc(b1-2)[Gal(b1-3)GlcNAc(b1-6)]Man(a1-6)[Gal(b1-3)GlcNAc(b1-2)Man(a1-3)]Man(b1-4)GlcNAc(b1-4)GlcNAc
Summary of the method: as §1

[4] = biological target: Gal(b1-3)GlcNAc(b1-3)Gal(b1-3)GlcNAc
Summary of the method: as §1

[5] = biological target: Gal(b1-3)GlcNAc(b1-3)Gal(b1-4)Glc
Summary of the method: as §1

[6] = biological target: Gal(b1-3)GlcNAc(b1-3)Gal(b1-4)GlcNAc
Summary of the method: as §1

[7] = biological target: Gal(b1-3)GlcNAc(b1-3)Gal(b1-4)GlcNAc(b1-2)Man(a1-3)[Gal(b1-3)GlcNAc(b1-3)Gal(b1-4)GlcNAc(b1-2)Man(a1-6)]Man(b1-4)GlcNAc(b1-4)GlcNAc
Summary of the method: as §1

[8] = biological target: Gal(b1-3)GlcNAc(b1-3)Gal(b1-4)GlcNAc(b1-2)[Gal(b1-3)GlcNAc(b1-3)Gal(b1-4)GlcNAc(b1-6)]Man(a1-6)[Gal(b1-3)GlcNAc(b1-3)Gal(b1-4)GlcNAc(b1-2)Man(a1-3)]Man(b1-4)GlcNAc(b1-4)[Fuc(a1-6)]GlcNAc
Summary of the method: as §1

[9] = biological target: Gal(b1-3)GlcNAc(b1-3)Gal(b1-4)GlcNAc(b1-3)Gal(b1-4)GlcNAc(b1-2)[Gal(b1-3)GlcNAc(b1-3)Gal(b1-4)GlcNAc(b1-3)Gal(b1-4)GlcNAc(b1-6)]Man(a1-6)[Gal(b1-3)GlcNAc(b1-3)Gal(b1-4)GlcNAc(b1-3)Gal(b1-4)GlcNAc(b1-2)Man(a1-3)]Man(b1-4)GlcNAc(b1-4)[Fuc(a1-6)]GlcNAc
Summary of the method: as §1

[10] = biological target: Gal(b1-3)GlcNAc(b1-3)Gal(b1-4)GlcNAc(b1-6)[Gal(b1-3)GlcNAc(b1-3)]Gal(b1-4)Glc
Summary of the method: as §1

[11] = biological target: Gal(b1-3)GlcNAc(b1-3)Gal(b1-4)[Fuc(a1-3)]GlcNAc
Summary of the method: as §1

[12] = biological target: Gal(b1-3)GlcNAc(b1-3)Gal(b1-4)[Fuc(a1-3)]GlcNAc(b1-6)[Gal(b1-3)GlcNAc(b1-3)]Gal(b1-4)Glc
Summary of the method: as §1

[13] = biological target: Gal(b1-3)GlcNAc(b1-3)GalNAc
Summary of the method: as §1

[14] = biological target: Gal(b1-3)GlcNAc(b1-6)Gal(b1-4)GlcNAc
Summary of the method: as §1

[15] = biological target: Gal(b1-3)GlcNAc(b1-6)GalNAc
Summary of the method: as §1

[16] = biological target: Gal(b1-3)GlcNAc(b1-6)[Gal(b1-3)]GalNAc
Summary of the method: as §1

Gal(b1-3)GlcNAc6S = biological target: Gal(b1-3)GlcNAc6S
Summary of the method: as §1

[17] = biological target: Gal(b1-3)[Fuc(a1-4)]GlcNAc
Summary of the method: as §1

[18] = biological target: Gal(b1-3)[Fuc(a1-4)]GlcNAc(b1-2)Man
Summary of the method: as §1

[19] = biological target: Gal(b1-3)[Fuc(a1-4)]GlcNAc(b1-2)Man(a1-3)[Gal(b1-3)[Fuc(a1-4)]GlcNAc(b1-2)Man(a1-6)]Man(b1-4)GlcNAc(b1-4)[Fuc(a1-6)]GlcNAc
Summary of the method: as §1

[20] = biological target: Gal(b1-3)[Fuc(a1-4)]GlcNAc(b1-3)Gal(b1-3)[Fuc(a1-4)]GlcNAc
Summary of the method: as §1

[21] = biological target: Gal(b1-3)[Fuc(a1-4)]GlcNAc(b1-3)Gal(b1-4)[Fuc(a1-3)]GlcNAc
Summary of the method: as §1

[22] = biological target: Gal(b1-3)[Fuc(a1-4)]GlcNAc(b1-6)GalNAc
Summary of the method: as §1

[23] = biological target: Gal(b1-3)[GlcNAc(b1-6)]GalNAc
Summary of the method: as §1

[24] = biological target: Gal(b1-3)[Neu5Ac(a2-6)]GalNAc
Summary of the method: as §1

[25] = biological target: Gal(b1-3)[Neu5Ac(a2-6)]GlcNAc(b1-4)Gal(b1-4)Glc
Summary of the method: as §1

[26] = biological target: Gal(b1-3)[Neu5Ac(b2-6)]GalNAc
Summary of the method: as §1

Gal(b1-4)Gal = biological target: Gal(b1-4)Gal
Summary of the method: as §1

[27] = biological target: Gal(b1-4)GalNAc(a1-3)[Fuc(a1-2)]Gal(b1-4)GlcNAc
Summary of the method: as §1

[28] = biological target: Gal(b1-4)GalNAc(b1-3)[Fuc(a1-2)]Gal(b1-4)GlcNAc
Summary of the method: as §1

Gal(b1-4)Glc = biological target: Gal(b1-4)Glc
Summary of the method: as §1

Gal(b1-4)Glc6S = biological target: Gal(b1-4)Glc6S
Summary of the method: as §1

Gal(b1-4)GlcNAc = biological target: Gal(b1-4)GlcNAc
Summary of the method: as §1

[29] = biological target: Gal(b1-4)GlcNAc(a1-6)Gal(b1-4)GlcNAc
Summary of the method: as §1

Gal(b1-4)GlcNAc(b1-2)Man = biological target: Gal(b1-4)GlcNAc(b1-2)Man
Summary of the method: as §1

[30] = biological target: Gal(b1-4)GlcNAc(b1-2)Man(a1-3)Man(b1-4)GlcNAc(b1-4)GlcNAc
Summary of the method: as §1

[31] = biological target: Gal(b1-4)GlcNAc(b1-2)Man(a1-3)[Gal(b1-4)GlcNAc(b1-2)Man(a1-6)]Man(b1-4)GlcNAc(b1-4)GlcNAc
Summary of the method: as §1

B1: Epa3to2 (Candida glabrata) (protein)
chain: MGSSHHHHHHSSGLVPRGSHMKRELSSQNPFGYPIGCSPQDVAIIPGLTMELYSYPIVSGTPPNCYDASYVDPEYPRTGYLKRKMVGKSTGVTGNLNYKYSVEKACMVKYGNLPAGYNYNEPLTVSNFTMILYGYFKAQTTGLHTFFVNADDLLYINFGAGNAFDCCKREDSKTKLGEYVAYDIWHVDSSKNKVSLFLEKDLYYPIRMFFNNRDNNSSLDLSFSVNGATDQISDFSGYLYSVPDQPDTCPAHIGYDTTCR
glycan array binding signal (z-score) [1]: 0.013 | glycan array binding signal (z-score) [2]: 0.033 | glycan array binding signal (z-score) [3]: 0.52 | glycan array binding signal (z-score) [4]: -1.5 | glycan array binding signal (z-score) [5]: -0.861 | glycan array binding signal (z-score) [6]: -0.803 | glycan array binding signal (z-score) [7]: -0.538 | glycan array binding signal (z-score) [8]: 0.293 | glycan array binding signal (z-score) [9]: 0.431 | glycan array binding signal (z-score) [10]: 0.876 | glycan array binding signal (z-score) [11]: 0.065 | glycan array binding signal (z-score) [12]: 0.205 | glycan array binding signal (z-score) [13]: -0.784 | glycan array binding signal (z-score) [14]: 0.93 | glycan array binding signal (z-score) [15]: -0.753 | glycan array binding signal (z-score) [16]: -0.743 | glycan array binding signal (z-score) (Gal(b1-3)GlcNAc6S): 0.219 | glycan array binding signal (z-score) [17]: -0.481 | glycan array binding signal (z-score) [18]: 0.761 | glycan array binding signal (z-score) [19]: -0.358 | glycan array binding signal (z-score) [20]: -1.46 | glycan array binding signal (z-score) [21]: -1.49 | glycan array binding signal (z-score) [22]: -0.758 | glycan array binding signal (z-score) [23]: 0.111 | glycan array binding signal (z-score) [24]: 0.19 | glycan array binding signal (z-score) [25]: 0.314 | glycan array binding signal (z-score) [26]: -1.28 | glycan array binding signal (z-score) (Gal(b1-4)Gal): -1.15 | glycan array binding signal (z-score) [27]: -1.03 | glycan array binding signal (z-score) [28]: 0.334 | glycan array binding signal (z-score) (Gal(b1-4)Glc): -0.667 | glycan array binding signal (z-score) (Gal(b1-4)Glc6S): 0.174 | glycan array binding signal (z-score) (Gal(b1-4)GlcNAc): 0.032 | glycan array binding signal (z-score) [29]: 0.937 | glycan array binding signal (z-score) (Gal(b1-4)GlcNAc(b1-2)Man): -0.96 | glycan array binding signal (z-score) [30]: 0.12 | glycan array binding signal (z-score) [31]: 1.39
